The target in the assay is apoptosis-associated speck-like protein containing a CARD (rat (endogenous in primary rat articular chondrocytes)). As to the kind of experiment: co-IP; lysates of primary rat articular chondrocytes treated with pH 6.0 acid for 12 h; IP with anti-ASC antibody or rabbit IgG control, protein A/G magnetic beads (Classic IP/CoIP Kit), immunoblot. For orientation: A western blot detects proteins with antibodies after separation by electrophoresis.

These results are taken from publication PMC12486255.

Results are given in words; binding and its absence hold for the method and conditions named. Binding seen in cells or lysates may run through a third protein. A result given as binding can be weak or reduced; the word gives no strength.

B1: Pyrin (protein, UniProt Q9JJ25 1-747)
chain: MANTRVDHLLNTLEELLPYELEKFKFKLHTTSLEKGHSRIPLSLVKMARPIKLTRLLLTYYGEEYAVRLTLQILRATNQRQLAEELHKATGPEHLTEENGVGGSVQSSAENKDKGVKGSDVPGEDEAQQNDDESDILPPIQAEVGKGPQKKSLAKRKDQRGPESLDSQTKPGARSAAPLYRRTLVTQSPGDKENRAGAQPQECQLCREAARSTAMSQGGERSRRLKCICLQERSDPGVLKLPLTQKKENPQIQKLFRLKRKQEMAVSFVREATLNGRTTGTLEKGVGIPEHSMMLDEETSRNMSSKISLTREKRCTASWTENGNGGPETPETLGETVSSILCDSCSPKVLLSLGEKLAQTPEDPASLGQAASKGRSRDKVACPLCHTQGELPAKACVQSSCSCSVAPGDPKASGRHSICFQCQSSRAGKSCEAQSPQFLPQCPRHMKQVQLLFCEDHREPICLICRLSQEHQGHRVRPIEEAALQYKEQIRKQLERLREMRGYVEEHKLPADKKAEDFLKQTETQKQRISCPLEKLFQFLEQQEQLFVTWLQELVQTIGKVRETYYTQVSLLDKLIGELEAKQDQPEWELMQDIGATLHRAETMTASELLGIPPGVKEKLHLLYQKSKSAEKNMQRFSEMLGSEMAFSASDVATREGCRPSTTKAQALIPTVHLKCDGAHTQDFDVILCAELEAGGSEPQDYLHPSSAQDTPELHEIHSQNNKRKFKSFLKWKPSFSRTDRCLRTCW
For the molecule B1, the binding entry is recorded as “binds”.

B2: Caspase 8 (protein, UniProt Q9JHX4 1-482)
chain: MDFHSCLYDIAERLGNEELAALKFLCLDHIPQKKQESINDVLVLFQRLQEEGMLEEDNLSFLKELLFHISRRDLLSRVLKSSPEEMVRELQVLGKAQVSAYRVMLFKLSEDMDKEDLKSFKFLLITEIPKCKLQDNSSLLDIFVEMEKRTILAENNLVTLKSICFRVNRSLLGRIDDYERSSTERRMSTEGGEELPVSVLDEVTIKMQDMWDSPGEQESESLNSDNVYQMKSKPRGYCLIFNNNNFSKAREDIPKLSNMRDRKGTNYDEEALSKTFKELHFEIVSFSDCTASQIHEVLVSYQSKDHKGKDCFICCILSHGDKGIVYGTDGKEASIYELTSYFTGSKCPSLAGKPKIFFIQACQGNNFQKAVPVPDETGLEQEHVLEEDSSSYKNYIPDEADFLLGMATVKNCVSYRDPTRGTWYIQSLCQSLRERCPRGEDILSILTGVNYDVSNKDNPRNMGKQMPQPIFTLRKKLFFPPN
With B2, the binding entry is “binds”.

B3: AIM2 (protein, UniProt D4A9W0 1-356)
chain: MESDFREMLLLTGLDHITEEELKRFKYLALTEFNIPRKTLNIADRTELADQLIQSAGAASAVAKAISIFQKLNYMDIAKALEEKKKEAESKYVTNTKKRGTQKVENRSQAKNCSVASATCSDKDFKGHSATEVCPQVKPQKKQMVAEQEAIREDLQQDSLVVMVLKAMNPFECETQEGKQKIFHATVATETEFFFVKVLNAQFKDKFIPKRTIQISNYLRHSYFVEVTSSSVVVDVESSHKVCVPNNIMKKAGETPKISKLKTLPCGTIVNGLFKVQKITEQKDRVIYGIHDKRGTMEVLVLGNQSKTKCEEGDKIRLTFFEVSNNRGKIQLKSGPCSIYKVIKAAKPKTKVKSVE
Consider B3, for which the binding result is listed as “binds”.

B4: Caspase 1 (protein, UniProt P43527 1-402)
chain: MADKVLRAKRKQFINSVSVGTINGLLDELLEKRVLNQEEMDTIKLANITVMEKARDLCDHVTKKGPRASQMFITYICNEDCYLAEILELQSGPSAETVFVTEDSKGGHPFSSETKEKLNKEGGAFPGPSGSLKFCPLEIAQKLWKENHSEIYPIMKTPTRTRLALIICNTDFQHLSRRVGADVDLREMKLLLQDLGYTVKVKENLTALEMTKELKEFAACPEHKTSDSTFLVFMSHGLQEGICGITYSNEVADILKVDTIFQMMNTLKCPSLKDKPKVIIIQACRGEKQGVVLLKDSVGNSEEGFLTDAIFEDDGIKKAHIEKDFIAFCSSTPDNVSWRHPVRGSLFIESLIKHMKEYAWSCDLEDIFRKVRFSFEQPDSRLQMPTTERVTLTKRFYLFPGH
On to B4, for which the binding result is given as “binds”.

B5: Receptor Interacting Protein Kinase 3 (protein, UniProt Q9Z2P5 1-478)
chain: MSSVKLWLNGASSISLVGSEELENLGFVGKGGFGAVFRARHTAWNLDVAVKIVNSKKISREVKAMVNLRHENVLLLLGVTENLEWDYVYGPALVTGFMENGSLSGLLQPSCPRPWPLLCRLLEEVVLGMCYLHSLNPSLLHRDLKPSNVLLDPELHAKLADFGLSTFQGGSQSGSGSGSRDSGGTLAYLAPELLDNDGKASKASDVYSFGVLVWTVLAGREAEVVDKTSLIRGAVCNRQRRPPLTELPPDSPETPGLEGLKELMTHCWSSEPKDRPSFQDCESKTNNVYILVQDKVDAAVSKVKHYLSQYRSSDTKLSARESSQKGTEVDCPRETIVYEMLDRLHLEEPSGSVPERLTSLTERRGKEASFGHATPAGTSSDTLAGTPQIPHTLPSRGTTPRPAFTETPGPDPQRNQGDGRNSNPWYTWNAPNPMTGLQSIVLNNCSEVQIGQHNCMSVQPRTAFPKKEPAQFGRGRGW
B5: the binding result is “binds”.

B6: Z-DNA binding protein 1 (protein, UniProt Q8VDA5 1-409)
chain: MAEASVDLGTGDNLEQKILQVLSDAGSPVQIDQLLKKLQVPKKILNQVLYRLKKEGRVSSPAPATWSLGGDGASGDGAPEIPEDSAAQPSLEERILRFLETKGPQRALHIAKALGMTTAKEVNPILYSMRNKHLLTVSDTQMWTIYRSSQEGQERACSGVGQESPAVIYQQNPINMICQQGPNSLISISNSKAIQIGHGNVMSRQTICGDPGPGTPHHAPLPVLEDAAAQDTPPGTHGAQLIHLNKSMLRRVQLGHGNEMNLERDPVEHPIFSFSSSPPESTTTADPETAFNMQTPEPGPHPEGGTTQIVHIKSCLLEDTTVGNNNKMTIHRRSKGGTKESADSQELKEDTGASSEATPPRSCLHTPSDSTLLTSELTAMALGDGSPQITESMLREDEVQAAETCQTQD
Consider B6, for which the binding result is recorded as “binds”.
